According to patent US20080181886A1, “Polypeptides That Bind Baff And/Or April” (Genentech, Inc., priority 2004, published 2008):
No constants are given. Whether binding was seen depends on the method and setting. Some binding calls cover weakened binding; strength is not graded here. Tags and fused reporters may be left off the sequences shown.

Chains of the proteins cited; added tags and fusions are not shown. Residues count along the entry.
UniProt Q9D777, residues 104-241: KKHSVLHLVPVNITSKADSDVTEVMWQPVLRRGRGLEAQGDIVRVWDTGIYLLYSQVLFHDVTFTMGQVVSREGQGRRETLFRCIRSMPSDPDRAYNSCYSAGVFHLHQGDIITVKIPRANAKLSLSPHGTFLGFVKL

Target: TRX-APRIL (mouse) (UniProt Q9D777)
Test: SPR competition

binding: binds
B1: TACI_d1d2 (residues 21-116 of the TACI extracellular domain, C-terminal His-tag) (receptor, not shown: small tags and cut ends)
chain: FPQGLWTGVAMRSCPEEQYWDPLLGTCMSCKTICNHQSQRTCAAFCRSLSCRKEQGKFYDHLLRDCISCASICGQHPKQCAYFCENKLRSPVNLPP
